Laboratory results taken from article PMC7790415, “Loss of endocytosis-associated RabGEF1 causes aberrant morphogenesis and altered autophagy in photoreceptors leading to retinal degeneration” (PLoS Genetics, 2020).

Protein sequences, listed by entry. Tags and fused reporters are not part of them.
UniProt Q9JM13: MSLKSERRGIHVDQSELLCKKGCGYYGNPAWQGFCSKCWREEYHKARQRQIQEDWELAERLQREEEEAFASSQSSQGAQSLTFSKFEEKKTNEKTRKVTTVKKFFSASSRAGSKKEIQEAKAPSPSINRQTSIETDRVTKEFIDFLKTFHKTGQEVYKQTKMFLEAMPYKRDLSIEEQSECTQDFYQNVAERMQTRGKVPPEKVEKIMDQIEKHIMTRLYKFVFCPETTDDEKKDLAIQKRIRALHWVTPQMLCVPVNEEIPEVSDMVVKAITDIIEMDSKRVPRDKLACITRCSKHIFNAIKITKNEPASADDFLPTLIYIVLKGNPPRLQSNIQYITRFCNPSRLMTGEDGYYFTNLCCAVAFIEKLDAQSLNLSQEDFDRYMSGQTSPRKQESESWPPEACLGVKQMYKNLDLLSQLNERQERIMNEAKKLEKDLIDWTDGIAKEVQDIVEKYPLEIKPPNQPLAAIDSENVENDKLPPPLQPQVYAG

Target: RabGEF1 (mouse (endogenous in retina)) (UniProt Q9JM13)
Assay: affinity purification with mass spectrometry; anti-RabGEF1 and IgG immunoprecipitates from control and Rabgef1-/- mouse retinal lysates; trypsin digest, LC-MS on Orbitrap Lumos (n = 2)

- binding: binds
B1: Rabep2 (protein, UniProt Q91WG2 1-554)
chain: MAAAPATLALDPQPQEKQKDASESSELSRLRAELAGALAEMETMKAVAEVSESTKAEAVAAVQRQCQEEVASLQAILKDSISSYETQIAALKQERQQQQQDFEEKDRELGHLKQLLARAHPLDSLEKQMEKAHEDSEKLREIVLPMEQEITELKGKLQRAEELIQEIQRRPRQPASLHGSTELLPLSRNPSPPLEPLEEPSGDAGPAAEAFAHNCDDSASISSFSLGGAAGSASLRGPQGLSPEQEETASLVSTGTLVPEGIFLPPPGYQLVPDSQWEQLQVEGRQLQKELESVSRERDELQEGLRRSNEDCAKQMQVLLAQVQNSEQLLRTLQGTVSQAQERVQLQMAELATSHKCLSQEVKRLNEENQGLRAEQLPSSALQGSEQREDQDEALPSSIQELHLLVQNTRQQARARQQAQEHEAERLRIEIVKLREALDEETAAKASLERQLRVQREETDVLEASLCSLRIETERVQQEQRKAQLTDLLSEQRAKTLRLQAELETSEQVQRDFVRLSQALQVRLERIRQAETLQQVRSILDEAPLRDIRDIKDS

No constants are given. Whether binding was seen depends on the method and setting. In cells and extracts the contact can be indirect. These calls come from enrichment with a bait or labelling near it, and not all partners need be listed.
